This is one part of the list.
Experiments:
Assay in all cases: log2 fold change, soluble protein after heating vs DMSO (PISA); higher = thermal stabilisation; K562 lysate, 10 uM; active = over 0.2 and 3.5 SD of the protein, either way, in both replicates (recomputed)
[1] = compound: CCCS(=O)(=O)Nc1ccc(F)c(C(=O)c2c[nH]c3ncc(-c4ccc(Cl)cc4)cc23)c1F [vemurafenib]
How it was run: (§1)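 A 30 min treatment with 10 μM compound was applied to crude K562 extract at 1 mg/mL protein in PBS pH 7.4 with 1 mM MgCl2. Heating for 3 min spanned 48°C-58°C, after which aliquots were pooled, adjusted to 0.5% NP-40 at 4°C and spun at 21,000xg for 90 min. TMTpro 16plex LC-MS/MS of the supernatant, with channel sums equalised, gave values recorded as log-two fold change in thermal stability against solvent controls, from duplicates.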

By UniProt entry, the sequences of proteins in these tests, tags left out. Where a name states a change or a piece, a line headed by the entry shows the natural chain unless it says otherwise.
UniProt Q17R31: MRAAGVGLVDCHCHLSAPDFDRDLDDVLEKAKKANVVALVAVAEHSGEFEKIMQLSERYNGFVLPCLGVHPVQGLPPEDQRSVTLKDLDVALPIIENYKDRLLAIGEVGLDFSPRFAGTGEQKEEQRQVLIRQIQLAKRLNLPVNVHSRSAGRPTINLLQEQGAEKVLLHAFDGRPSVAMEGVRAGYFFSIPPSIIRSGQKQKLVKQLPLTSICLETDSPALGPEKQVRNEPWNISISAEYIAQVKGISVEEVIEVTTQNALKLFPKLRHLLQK
UniProt Q9BTW9: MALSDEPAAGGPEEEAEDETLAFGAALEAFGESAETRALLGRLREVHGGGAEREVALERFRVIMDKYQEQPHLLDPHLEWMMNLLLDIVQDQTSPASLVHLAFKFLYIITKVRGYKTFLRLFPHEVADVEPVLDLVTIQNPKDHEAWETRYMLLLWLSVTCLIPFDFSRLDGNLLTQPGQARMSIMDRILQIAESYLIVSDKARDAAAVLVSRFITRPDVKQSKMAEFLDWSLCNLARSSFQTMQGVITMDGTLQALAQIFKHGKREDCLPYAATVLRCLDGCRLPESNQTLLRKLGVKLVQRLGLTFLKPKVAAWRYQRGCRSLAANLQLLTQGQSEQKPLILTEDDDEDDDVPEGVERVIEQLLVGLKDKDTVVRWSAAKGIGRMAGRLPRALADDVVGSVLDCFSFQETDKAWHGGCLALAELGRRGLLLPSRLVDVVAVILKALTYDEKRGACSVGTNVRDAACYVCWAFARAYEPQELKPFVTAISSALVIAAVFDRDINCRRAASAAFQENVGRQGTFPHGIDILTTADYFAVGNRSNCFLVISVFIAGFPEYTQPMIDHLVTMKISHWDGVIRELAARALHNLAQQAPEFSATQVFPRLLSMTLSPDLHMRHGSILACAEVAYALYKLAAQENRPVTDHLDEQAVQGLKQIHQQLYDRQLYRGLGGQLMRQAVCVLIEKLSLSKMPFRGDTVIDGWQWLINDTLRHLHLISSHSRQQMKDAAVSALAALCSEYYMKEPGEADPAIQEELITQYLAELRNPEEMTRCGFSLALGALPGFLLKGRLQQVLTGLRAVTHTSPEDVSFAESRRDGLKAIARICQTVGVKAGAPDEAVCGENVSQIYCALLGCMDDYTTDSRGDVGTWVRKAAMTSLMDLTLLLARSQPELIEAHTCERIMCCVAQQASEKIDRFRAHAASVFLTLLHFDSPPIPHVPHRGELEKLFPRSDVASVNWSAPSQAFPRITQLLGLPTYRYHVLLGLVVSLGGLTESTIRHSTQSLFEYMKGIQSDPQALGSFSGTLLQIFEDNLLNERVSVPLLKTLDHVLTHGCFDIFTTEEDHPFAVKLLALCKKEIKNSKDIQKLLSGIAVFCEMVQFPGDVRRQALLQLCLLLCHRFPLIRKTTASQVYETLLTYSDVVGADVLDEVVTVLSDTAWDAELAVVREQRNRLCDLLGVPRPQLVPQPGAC
UniProt P26639: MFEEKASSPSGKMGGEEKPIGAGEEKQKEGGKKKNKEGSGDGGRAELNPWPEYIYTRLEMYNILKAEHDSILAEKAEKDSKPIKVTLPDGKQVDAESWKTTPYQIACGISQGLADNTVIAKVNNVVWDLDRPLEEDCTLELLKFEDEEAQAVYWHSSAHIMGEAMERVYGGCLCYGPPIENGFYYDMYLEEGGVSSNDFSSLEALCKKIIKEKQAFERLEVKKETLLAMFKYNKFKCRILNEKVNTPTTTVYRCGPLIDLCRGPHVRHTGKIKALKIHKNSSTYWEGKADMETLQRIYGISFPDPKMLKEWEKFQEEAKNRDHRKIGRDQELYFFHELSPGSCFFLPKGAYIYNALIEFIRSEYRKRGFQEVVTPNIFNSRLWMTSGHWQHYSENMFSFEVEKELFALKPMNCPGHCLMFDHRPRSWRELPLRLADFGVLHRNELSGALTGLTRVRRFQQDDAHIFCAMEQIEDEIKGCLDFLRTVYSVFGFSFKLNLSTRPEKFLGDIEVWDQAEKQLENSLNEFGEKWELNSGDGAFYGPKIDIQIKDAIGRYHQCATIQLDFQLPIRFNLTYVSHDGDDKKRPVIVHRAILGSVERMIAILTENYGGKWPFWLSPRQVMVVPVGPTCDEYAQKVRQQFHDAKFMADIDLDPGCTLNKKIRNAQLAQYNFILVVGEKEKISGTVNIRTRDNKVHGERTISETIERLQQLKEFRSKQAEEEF
UniProt P17987, whole entry, looked up: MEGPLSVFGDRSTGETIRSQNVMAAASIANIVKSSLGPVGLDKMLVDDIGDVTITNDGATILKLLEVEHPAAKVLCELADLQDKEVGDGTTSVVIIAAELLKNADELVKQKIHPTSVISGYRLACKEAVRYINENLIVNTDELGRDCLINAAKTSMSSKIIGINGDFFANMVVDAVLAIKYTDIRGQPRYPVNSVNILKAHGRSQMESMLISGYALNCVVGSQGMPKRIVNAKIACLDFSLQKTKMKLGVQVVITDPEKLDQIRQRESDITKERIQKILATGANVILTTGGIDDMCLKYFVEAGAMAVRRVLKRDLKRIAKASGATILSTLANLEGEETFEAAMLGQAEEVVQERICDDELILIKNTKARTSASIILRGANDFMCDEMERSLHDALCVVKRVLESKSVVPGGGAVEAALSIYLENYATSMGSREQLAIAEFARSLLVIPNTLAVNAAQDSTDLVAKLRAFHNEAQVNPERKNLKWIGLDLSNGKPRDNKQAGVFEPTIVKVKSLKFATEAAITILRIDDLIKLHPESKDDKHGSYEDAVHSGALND
UniProt Q92844: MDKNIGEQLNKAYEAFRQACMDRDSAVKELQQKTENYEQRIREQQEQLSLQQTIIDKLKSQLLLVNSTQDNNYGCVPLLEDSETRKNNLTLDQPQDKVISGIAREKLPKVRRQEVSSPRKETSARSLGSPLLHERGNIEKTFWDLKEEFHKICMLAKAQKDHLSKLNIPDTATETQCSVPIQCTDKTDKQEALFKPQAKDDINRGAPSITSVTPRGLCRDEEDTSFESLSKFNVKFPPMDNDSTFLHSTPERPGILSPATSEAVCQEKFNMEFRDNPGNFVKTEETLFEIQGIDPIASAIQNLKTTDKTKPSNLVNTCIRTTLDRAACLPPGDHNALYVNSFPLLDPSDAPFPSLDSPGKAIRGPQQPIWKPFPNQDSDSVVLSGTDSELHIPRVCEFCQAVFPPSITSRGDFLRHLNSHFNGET
UniProt A6NFQ2: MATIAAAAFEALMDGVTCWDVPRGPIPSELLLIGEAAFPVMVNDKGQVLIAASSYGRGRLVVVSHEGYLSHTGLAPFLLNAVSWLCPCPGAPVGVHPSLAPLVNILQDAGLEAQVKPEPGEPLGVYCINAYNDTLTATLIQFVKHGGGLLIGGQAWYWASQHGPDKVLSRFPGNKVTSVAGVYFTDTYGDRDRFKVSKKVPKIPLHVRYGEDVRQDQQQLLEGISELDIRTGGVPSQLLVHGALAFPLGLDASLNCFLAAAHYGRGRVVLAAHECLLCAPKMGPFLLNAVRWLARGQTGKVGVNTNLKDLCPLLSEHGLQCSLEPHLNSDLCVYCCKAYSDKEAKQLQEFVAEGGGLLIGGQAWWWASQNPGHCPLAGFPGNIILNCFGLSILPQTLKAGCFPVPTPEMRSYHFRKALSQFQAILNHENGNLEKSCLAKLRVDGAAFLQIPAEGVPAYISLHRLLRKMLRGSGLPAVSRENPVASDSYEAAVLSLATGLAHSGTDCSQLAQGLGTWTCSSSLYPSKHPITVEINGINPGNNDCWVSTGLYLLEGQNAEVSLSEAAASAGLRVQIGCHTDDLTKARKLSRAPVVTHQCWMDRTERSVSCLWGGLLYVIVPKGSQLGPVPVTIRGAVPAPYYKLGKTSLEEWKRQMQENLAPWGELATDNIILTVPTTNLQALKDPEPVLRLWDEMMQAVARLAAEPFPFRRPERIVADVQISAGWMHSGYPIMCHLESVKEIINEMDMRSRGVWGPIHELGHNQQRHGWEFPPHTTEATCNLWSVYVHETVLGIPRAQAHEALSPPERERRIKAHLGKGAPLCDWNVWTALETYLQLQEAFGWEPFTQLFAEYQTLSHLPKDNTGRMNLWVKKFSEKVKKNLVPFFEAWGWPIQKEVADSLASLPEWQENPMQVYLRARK
UniProt Q92734, whole entry, looked up: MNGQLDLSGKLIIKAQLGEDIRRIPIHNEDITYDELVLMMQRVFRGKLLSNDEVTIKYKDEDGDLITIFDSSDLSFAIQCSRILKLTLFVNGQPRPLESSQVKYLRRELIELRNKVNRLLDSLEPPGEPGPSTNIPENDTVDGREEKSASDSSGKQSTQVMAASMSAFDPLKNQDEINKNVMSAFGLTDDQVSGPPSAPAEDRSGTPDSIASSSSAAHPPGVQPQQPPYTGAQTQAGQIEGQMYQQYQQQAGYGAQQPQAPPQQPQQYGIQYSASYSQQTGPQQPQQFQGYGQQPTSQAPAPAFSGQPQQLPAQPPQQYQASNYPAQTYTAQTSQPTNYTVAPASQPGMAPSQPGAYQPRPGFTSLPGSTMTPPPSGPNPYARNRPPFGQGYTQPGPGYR
UniProt Q9NZ01: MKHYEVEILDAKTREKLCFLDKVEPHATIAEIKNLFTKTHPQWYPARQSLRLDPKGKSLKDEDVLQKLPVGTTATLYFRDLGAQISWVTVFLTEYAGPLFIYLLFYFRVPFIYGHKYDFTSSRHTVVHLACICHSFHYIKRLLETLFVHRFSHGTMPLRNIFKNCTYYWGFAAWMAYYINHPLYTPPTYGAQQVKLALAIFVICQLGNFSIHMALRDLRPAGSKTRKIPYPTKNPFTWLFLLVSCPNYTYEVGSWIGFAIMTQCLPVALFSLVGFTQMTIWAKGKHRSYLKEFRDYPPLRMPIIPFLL

[2] = compound: CCCS(=O)(=O)Nc1ccc(F)c(C(=O)c2c[nH]c3ncc(Cl)cc23)c1F
How it was run: as §1

[3] = compound: CCN(CCCOc1ccc2c(Nc3cc(CC(=O)Nc4cccc(F)c4)[nH]n3)ncnc2c1)CCOP(=O)(O)O [barasertib]
How it was run: as §1

[4] = compound: CC[C@@H]1C(=O)N(C)c2cnc(Nc3ccc(C(=O)NC4CCN(C)CC4)cc3OC)nc2N1C1CCCC1
How it was run: as §1

[5] = compound: CC[C@@H]1C(=O)N(C)c2cnc(Nc3ccc(C(=O)N[C@H]4CC[C@H](N5CCN(CC6CC6)CC5)CC4)cc3OC)nc2N1C(C)C [volasertib]
How it was run: as §1

[6] = compound: CCn1c(C(=O)N(C2CC2)C2CC2)cc2c3c(ncn3C)c(Nc3cc(C)n(C)n3)nc21
How it was run: as §1

[7] = compound: CCn1cc(-c2ccnc3[nH]c(-c4cccc(CN(C)C)c4)cc23)c(-c2ccc(NC(=O)N(C)C)cc2)n1
How it was run: as §1

[8] = compound: CN1CCC(CNc2ccc3ncc(-c4cccc(OC(F)(F)F)c4)n3n2)CC1
How it was run: as §1

[9] = compound: CN1CCN(CCOc2cc(OC3CCOCC3)c3c(Nc4c(Cl)ccc5c4OCO5)ncnc3c2)CC1 [saracatinib]
How it was run: as §1

[10] = compound: CN1CCN(c2nc(C3=C(c4c[nH]c5ccccc45)C(=O)NC3=O)c3ccccc3n2)CC1 [sotrastaurin]
How it was run: as §1

[11] = compound: CN1CC[C@H](c2c(O)cc(O)c3c(=O)cc(-c4ccccc4Cl)oc23)[C@H](O)C1 [alvocidib]
How it was run: as §1

[12] = compound: CN1CCc2c(c3ccccc3n2Cc2ccc(C(=O)NO)cc2)C1 [Tubastatin A]
How it was run: as §1

[13] = compound: CNC(=O)C1=CC=CC=C1NC2=NC(=NC=C2Cl)NC3=C(C=C(C=C3)N4CCOCC4)OC
How it was run: as §1

[14] = compound: CNC(=O)c1ccc(Nc2ncc(C(F)(F)F)c(NCc3nccnc3N(C)S(C)(=O)=O)n2)cc1 [defactinib]
How it was run: as §1

[15] = compound: CNc1nc(-c2ccc3c(N)n[nH]c3c2)cc(N2C[C@@H](C(=O)NC3CCCCC3)CC[C@H]2C)n1
How it was run: as §1

[16] = compound: COC(=O)N[C@@H](C)CNc1nccc(-c2cn(C(C)C)nc2-c2cc(Cl)cc(NS(C)(=O)=O)c2F)n1 [encorafenib]
How it was run: as §1

[17] = compound: COC(=O)[C@H](CCSC)NC(=O)C1=C(C=C(C=C1)NC[C@H](CS)N)C2=CC=CC=C2
How it was run: as §1

[18] = compound: COc1cc(Nc2ncc3c(n2)-c2ccc(Cl)cc2C(c2c(F)cccc2OC)=NC3)ccc1C(=O)O [alisertib]
How it was run: as §1

[19] = compound: COc1cc2nc(-c3cc(F)ccc3O)nc(N[C@@H]3CNC[C@H]3C(C)(C)O)c2cc1OC
How it was run: as §1

[20] = compound: COc1cc2ncnc(Nc3ccc(F)c(Cl)c3)c2cc1OCCCN1CCOCC1 [gefitinib]
How it was run: as §1

Row | Target | log2 fold change [1] | log2 fold change [2] | log2 fold change [3] | log2 fold change [4] | log2 fold change [5] | log2 fold change [6] | log2 fold change [7] | log2 fold change [8] | log2 fold change [9] | log2 fold change [10] | log2 fold change [11] | log2 fold change [12] | log2 fold change [13] | log2 fold change [14] | log2 fold change [15] | log2 fold change [16] | log2 fold change [17] | log2 fold change [18] | log2 fold change [19] | log2 fold change [20]
1 | TATDN3 isoform 3 (UniProt Q17R31) | inactive: 0.004 | inactive: 0.038 | inactive: 0 | inactive: 0.003 | inactive: 0.006 | inactive: -0.048 | inactive: -0.165 | inactive: 0.075 | inactive: 0.067 | inactive: 0.027 | inactive: -0.037 | inactive: 0.043 | inactive: -0.018 | inactive: -0.06 | inactive: 0.024 | inactive: -0.035 | inactive: 0.003 | inactive: 0.013 | inactive: -0.008 | inactive: 0.038
2 | TBCD (UniProt Q9BTW9) | inactive: 0.017 | inactive: 0.013 | inactive: 0.013 | inactive: -0.076 | inactive: -0.028 | inactive: 0.004 | inactive: -0.089 | inactive: 0.027 | inactive: 0.009 | inactive: 0.001 | inactive: -0.014 | inactive: -0.047 | inactive: 0.036 | inactive: -0.015 | inactive: 0 | inactive: 0.021 | inactive: 0.016 | inactive: 0.016 | inactive: 0.008 | inactive: 0.012
3 | TARS1 (UniProt P26639) | inactive: -0.006 | inactive: 0.015 | inactive: -0.015 | inactive: -0.022 | inactive: -0.005 | inactive: -0.002 | inactive: -0.043 | inactive: 0.015 | inactive: -0.043 | inactive: -0.009 | inactive: -0.002 | inactive: 0.009 | inactive: -0.017 | inactive: -0.01 | inactive: 0.015 | inactive: -0.029 | inactive: 0.055 | inactive: 0 | inactive: -0.001 | inactive: -0.031
4 | TCP1 (UniProt P17987) | inactive: -0.018 | inactive: -0.001 | inactive: -0.04 | inactive: -0.008 | inactive: 0.014 | inactive: -0.007 | inactive: 0.015 | inactive: 0.006 | inactive: -0.01 | inactive: -0.023 | inactive: 0.015 | inactive: 0.019 | inactive: 0 | inactive: -0.018 | inactive: 0.008 | inactive: -0.011 | inactive: -0.022 | inactive: 0.014 | inactive: 0.005 | inactive: -0.028
5 | TANK (UniProt Q92844) | inactive: 0.023 | inactive: 0.004 | inactive: 0.007 | inactive: -0.026 | inactive: -0.02 | inactive: 0.004 | inactive: 0.18 | inactive: -0.054 | inactive: 0.01 | inactive: 0 | inactive: 0.066 | inactive: -0.043 | inactive: 0.25 | inactive: 0.044 | inactive: 0.068 | inactive: -0.006 | active: -0.309 | inactive: -0.006 | inactive: -0.024 | inactive: -0.047
6 | TCAF2 (UniProt A6NFQ2) | inactive: 0.052 | inactive: 0.041 | inactive: -0.048 | inactive: -0.027 | inactive: -0.049 | inactive: 0.045 | inactive: 0.003 | inactive: -0.05 | inactive: 0.004 | inactive: -0.017 | inactive: -0.016 | inactive: -0.183 | inactive: -0.026 | inactive: 0.067 | inactive: -0.026 | inactive: 0.006 | inactive: 0.044 | inactive: 0.03 | inactive: -0.067 | inactive: -0.042
7 | TFG (UniProt Q92734) | inactive: 0.011 | inactive: -0.001 | inactive: 0.01 | inactive: 0.084 | inactive: 0.025 | inactive: 0.002 | inactive: -0.034 | inactive: 0.024 | inactive: 0.003 | inactive: -0.015 | inactive: -0.021 | inactive: 0.044 | inactive: -0.011 | inactive: 0 | inactive: 0.022 | inactive: -0.002 | inactive: -0.032 | inactive: -0.034 | inactive: 0.015 | inactive: -0.011
8 | TECR (UniProt Q9NZ01) | inactive: -0.003 | inactive: 0.054 | inactive: 0.082 | inactive: -0.02 | inactive: 0.001 | inactive: 0.032 | inactive: 0.014 | inactive: -0.247 | inactive: 0.045 | inactive: -0.034 | inactive: 0.05 | inactive: -0.015 | inactive: -0.046 | inactive: 0.052 | inactive: -0.008 | inactive: 0.068 | inactive: -0.104 | inactive: 0.053 | inactive: 0.048 | inactive: -0.008

— the supplement of paper PMC10849652
